# Source: the supplement of paper PMC12823440, “Inhibitors supercharge kinase turnover through native proteolytic circuits” (Nature, 2025)
# Amino acid sequences for entries named in this document (tags omitted). A change or cut given only in a name is not applied to a line headed by its entry.
# UniProt Q05397, whole entry, looked up: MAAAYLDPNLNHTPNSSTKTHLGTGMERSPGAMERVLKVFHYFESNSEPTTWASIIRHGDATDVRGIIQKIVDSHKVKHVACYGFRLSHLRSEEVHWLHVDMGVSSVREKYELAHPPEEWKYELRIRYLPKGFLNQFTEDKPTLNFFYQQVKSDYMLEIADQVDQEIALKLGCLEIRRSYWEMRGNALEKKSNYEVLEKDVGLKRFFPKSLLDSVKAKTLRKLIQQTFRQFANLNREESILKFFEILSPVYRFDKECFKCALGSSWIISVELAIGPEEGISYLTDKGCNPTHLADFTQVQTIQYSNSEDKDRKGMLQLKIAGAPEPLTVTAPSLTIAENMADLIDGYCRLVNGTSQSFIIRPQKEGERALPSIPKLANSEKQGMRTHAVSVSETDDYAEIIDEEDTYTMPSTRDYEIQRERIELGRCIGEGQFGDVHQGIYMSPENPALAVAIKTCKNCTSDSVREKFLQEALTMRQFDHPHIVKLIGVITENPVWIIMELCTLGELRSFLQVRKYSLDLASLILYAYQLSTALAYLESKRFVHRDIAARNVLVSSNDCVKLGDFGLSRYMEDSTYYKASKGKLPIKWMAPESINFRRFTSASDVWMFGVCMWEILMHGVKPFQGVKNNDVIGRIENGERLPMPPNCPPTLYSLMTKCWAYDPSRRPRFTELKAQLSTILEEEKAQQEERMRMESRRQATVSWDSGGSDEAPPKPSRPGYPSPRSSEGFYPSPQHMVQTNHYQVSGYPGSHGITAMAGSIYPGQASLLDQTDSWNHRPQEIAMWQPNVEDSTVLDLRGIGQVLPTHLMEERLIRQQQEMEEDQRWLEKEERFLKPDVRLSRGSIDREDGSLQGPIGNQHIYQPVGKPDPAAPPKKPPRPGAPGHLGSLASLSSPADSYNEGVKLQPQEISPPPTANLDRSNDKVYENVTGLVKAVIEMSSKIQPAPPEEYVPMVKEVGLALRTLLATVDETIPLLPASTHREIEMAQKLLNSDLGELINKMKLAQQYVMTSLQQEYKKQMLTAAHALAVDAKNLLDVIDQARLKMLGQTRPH
# UniProt Q14289, whole entry, looked up: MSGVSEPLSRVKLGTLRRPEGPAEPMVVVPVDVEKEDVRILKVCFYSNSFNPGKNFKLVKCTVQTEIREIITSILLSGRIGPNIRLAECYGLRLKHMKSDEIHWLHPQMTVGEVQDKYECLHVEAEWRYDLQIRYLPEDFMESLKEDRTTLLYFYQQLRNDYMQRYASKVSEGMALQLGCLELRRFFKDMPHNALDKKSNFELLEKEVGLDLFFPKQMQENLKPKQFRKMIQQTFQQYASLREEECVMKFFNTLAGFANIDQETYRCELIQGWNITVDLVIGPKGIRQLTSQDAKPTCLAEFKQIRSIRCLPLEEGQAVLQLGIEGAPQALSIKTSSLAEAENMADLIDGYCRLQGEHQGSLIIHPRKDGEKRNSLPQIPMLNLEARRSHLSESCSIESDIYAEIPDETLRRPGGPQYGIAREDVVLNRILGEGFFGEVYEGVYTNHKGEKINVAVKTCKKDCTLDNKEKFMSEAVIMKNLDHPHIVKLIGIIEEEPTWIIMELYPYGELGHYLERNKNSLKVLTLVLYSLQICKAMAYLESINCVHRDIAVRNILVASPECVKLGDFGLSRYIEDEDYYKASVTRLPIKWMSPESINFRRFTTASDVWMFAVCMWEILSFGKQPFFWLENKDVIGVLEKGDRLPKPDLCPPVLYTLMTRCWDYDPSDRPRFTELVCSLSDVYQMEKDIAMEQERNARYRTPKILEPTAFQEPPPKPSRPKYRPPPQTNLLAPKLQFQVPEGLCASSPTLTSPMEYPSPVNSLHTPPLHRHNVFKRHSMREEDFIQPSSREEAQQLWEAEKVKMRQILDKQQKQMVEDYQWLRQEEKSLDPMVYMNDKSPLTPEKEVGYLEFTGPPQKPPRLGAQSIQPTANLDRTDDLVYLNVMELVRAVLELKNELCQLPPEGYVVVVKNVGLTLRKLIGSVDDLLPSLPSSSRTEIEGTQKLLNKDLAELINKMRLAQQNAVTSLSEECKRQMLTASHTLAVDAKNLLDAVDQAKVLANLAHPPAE
# UniProt P07949, whole entry, looked up: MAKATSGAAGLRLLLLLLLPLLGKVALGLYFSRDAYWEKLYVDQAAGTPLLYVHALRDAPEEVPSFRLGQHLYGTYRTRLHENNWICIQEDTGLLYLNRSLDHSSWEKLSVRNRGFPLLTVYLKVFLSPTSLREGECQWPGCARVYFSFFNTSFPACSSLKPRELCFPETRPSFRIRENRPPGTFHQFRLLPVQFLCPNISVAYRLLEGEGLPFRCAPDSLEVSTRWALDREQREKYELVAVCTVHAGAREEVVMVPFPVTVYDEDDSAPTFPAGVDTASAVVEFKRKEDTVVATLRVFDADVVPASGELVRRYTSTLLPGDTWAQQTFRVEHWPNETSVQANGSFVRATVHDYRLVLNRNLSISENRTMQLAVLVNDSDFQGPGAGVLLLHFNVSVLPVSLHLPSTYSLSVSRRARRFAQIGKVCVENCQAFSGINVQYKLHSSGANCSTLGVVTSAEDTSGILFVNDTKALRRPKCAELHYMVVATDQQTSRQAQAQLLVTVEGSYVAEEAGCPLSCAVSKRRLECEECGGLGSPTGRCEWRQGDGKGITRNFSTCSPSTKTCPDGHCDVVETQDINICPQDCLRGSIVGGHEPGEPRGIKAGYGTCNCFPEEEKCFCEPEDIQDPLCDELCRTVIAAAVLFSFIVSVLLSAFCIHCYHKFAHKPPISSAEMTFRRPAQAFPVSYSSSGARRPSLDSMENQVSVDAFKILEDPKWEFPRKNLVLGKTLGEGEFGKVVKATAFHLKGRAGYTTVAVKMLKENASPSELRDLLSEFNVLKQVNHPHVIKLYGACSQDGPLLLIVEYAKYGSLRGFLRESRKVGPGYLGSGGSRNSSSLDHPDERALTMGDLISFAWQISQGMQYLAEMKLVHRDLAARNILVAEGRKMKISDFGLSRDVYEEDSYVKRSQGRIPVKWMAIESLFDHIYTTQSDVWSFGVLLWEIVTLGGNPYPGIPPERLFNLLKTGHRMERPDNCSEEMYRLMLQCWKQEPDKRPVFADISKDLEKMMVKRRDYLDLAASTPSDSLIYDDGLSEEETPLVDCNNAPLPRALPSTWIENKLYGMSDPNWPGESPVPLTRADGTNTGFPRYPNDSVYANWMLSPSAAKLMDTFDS
# UniProt P07949, whole entry M918T, looked up: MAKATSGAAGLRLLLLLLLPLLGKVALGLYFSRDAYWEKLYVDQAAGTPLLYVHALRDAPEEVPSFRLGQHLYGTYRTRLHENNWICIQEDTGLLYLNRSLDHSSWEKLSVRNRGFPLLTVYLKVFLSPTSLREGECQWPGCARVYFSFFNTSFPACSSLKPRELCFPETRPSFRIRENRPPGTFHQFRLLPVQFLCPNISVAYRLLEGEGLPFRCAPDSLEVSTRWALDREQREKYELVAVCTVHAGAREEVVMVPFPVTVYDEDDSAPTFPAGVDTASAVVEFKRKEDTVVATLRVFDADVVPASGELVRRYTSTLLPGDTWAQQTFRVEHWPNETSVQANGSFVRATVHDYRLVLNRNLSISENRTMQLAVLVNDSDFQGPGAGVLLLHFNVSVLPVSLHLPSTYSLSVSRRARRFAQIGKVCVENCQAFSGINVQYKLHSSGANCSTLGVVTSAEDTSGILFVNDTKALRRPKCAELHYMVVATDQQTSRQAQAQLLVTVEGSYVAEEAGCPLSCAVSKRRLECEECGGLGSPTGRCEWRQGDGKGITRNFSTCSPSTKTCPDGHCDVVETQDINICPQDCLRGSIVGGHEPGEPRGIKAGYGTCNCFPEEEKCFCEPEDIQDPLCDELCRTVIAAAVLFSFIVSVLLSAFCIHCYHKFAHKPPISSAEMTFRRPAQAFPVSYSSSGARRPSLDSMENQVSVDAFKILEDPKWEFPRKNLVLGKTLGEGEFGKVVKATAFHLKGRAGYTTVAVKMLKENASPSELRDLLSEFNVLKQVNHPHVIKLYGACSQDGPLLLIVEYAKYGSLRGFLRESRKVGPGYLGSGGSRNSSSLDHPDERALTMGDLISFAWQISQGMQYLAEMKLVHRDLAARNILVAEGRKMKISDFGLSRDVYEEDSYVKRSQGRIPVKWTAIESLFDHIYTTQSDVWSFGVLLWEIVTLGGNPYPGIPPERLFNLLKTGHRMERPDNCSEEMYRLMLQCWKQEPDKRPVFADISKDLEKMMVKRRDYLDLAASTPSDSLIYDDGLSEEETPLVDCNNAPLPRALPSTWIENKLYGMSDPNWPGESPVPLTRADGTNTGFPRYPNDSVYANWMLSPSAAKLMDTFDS
# UniProt Q9BRS2: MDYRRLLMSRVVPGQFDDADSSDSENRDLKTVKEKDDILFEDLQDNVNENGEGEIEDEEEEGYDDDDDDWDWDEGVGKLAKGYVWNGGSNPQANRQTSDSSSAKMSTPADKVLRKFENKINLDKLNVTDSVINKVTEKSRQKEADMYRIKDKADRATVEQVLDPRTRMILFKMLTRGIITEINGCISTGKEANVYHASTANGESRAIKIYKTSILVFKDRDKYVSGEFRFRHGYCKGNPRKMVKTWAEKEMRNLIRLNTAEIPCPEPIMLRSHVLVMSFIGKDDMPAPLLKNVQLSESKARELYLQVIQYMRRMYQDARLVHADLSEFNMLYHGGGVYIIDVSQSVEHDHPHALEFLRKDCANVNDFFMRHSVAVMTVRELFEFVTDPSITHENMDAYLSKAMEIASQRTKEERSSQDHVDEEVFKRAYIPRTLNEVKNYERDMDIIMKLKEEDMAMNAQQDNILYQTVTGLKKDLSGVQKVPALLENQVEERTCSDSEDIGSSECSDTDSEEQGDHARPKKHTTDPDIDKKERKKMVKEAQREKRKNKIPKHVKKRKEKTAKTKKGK
# UniProt Q13546: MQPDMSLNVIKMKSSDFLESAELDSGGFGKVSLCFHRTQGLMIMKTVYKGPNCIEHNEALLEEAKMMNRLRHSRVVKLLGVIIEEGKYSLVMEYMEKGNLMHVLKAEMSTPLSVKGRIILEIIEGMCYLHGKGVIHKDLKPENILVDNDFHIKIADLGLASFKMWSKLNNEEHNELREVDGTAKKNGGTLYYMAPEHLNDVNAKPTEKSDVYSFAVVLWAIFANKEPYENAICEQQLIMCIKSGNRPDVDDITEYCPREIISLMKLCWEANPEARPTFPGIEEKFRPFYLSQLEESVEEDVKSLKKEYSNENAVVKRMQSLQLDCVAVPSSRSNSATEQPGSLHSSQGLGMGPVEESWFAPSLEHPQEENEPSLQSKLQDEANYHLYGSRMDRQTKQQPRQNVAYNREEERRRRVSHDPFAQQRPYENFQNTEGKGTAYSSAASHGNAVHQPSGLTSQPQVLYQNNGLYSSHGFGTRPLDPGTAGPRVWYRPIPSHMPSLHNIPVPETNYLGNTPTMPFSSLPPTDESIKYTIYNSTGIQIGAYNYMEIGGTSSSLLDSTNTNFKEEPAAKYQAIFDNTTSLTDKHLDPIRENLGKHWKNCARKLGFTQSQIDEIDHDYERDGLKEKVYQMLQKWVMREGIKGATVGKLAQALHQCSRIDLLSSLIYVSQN
# Counter-ions that a name gives are not always drawn. This is one part of the list. The calls rarely recur for the same compound in another form.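 In K562 cells expressing nanoluciferase-fused kinases, luminescence was recorded at 4 h intervals between 2 and 18 h, normalized as percent of control with DMSO at 100% and a positive control at 0%. A significant (2 sigma) signal drop marks a time point as decreased. The authors' rule for a hit is not shown and takes in more than the number of time points.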
# Tests used:
# Test in all cases: number of time points (of 5) at which kinase-Nluc abundance scored as decreased, DMSO-normalised (count); higher = more persistent destabilization
# Details in all cases: K562; 2-18 h
# PRKCA = PRKCA (UniProt P17252)
# PTK2 = PTK2 (UniProt Q05397)
# PTK2B = PTK2B (UniProt Q14289)
# RAF1 = RAF1 (UniProt P04049)
# [1] = biological target: RAF1_S257L (clone: RAF1_mut) (UniProt P04049)
# RET = RET (UniProt P07949)
# [2] = biological target: RET_M918T (clone: RET_mut) (UniProt P07949)
# RIOK1 = RIOK1 (UniProt Q9BRS2)
# RIPK1 = RIPK1 (UniProt Q13546)
# RIPK2 = RIPK2 (UniProt O43353)
SMILES,number of time points (PRKCA),number of time points (PTK2),number of time points (PTK2B),number of time points (RAF1),number of time points [1],number of time points (RET),number of time points [2],number of time points (RIOK1),number of time points (RIPK1),number of time points (RIPK2)
CO[C@H]1C[C@@H]2CC[C@@H](C)[C@@](O)(O2)C(=O)C(=O)N2CCCC[C@H]2C(=O)O[C@H]([C@H](C)C[C@@H]2CC[C@@H](OC(=O)C(C)(CO)CO)[C@H](OC)C2)CC(=O)[C@H](C)/C=C(\C)[C@@H](O)[C@@H](OC)C(=O)[C@H](C)C[C@H](C)/C=C/C=C/C=C/1C [Temsirolimus] (2.5 µM),0,0,0,0,0,0,0,0,0,0
O=C1NC(=O)/C(=C\c2c[nH]c(=O)c(-c3ccc(N4CCNCC4)nc3)c2)S1 [Protein kinase inhibitors 1 hydrochloride] (10 µM),0,0,0,0,0,0,0,0,0,0
Cc1c(Cl)cccc1S(=O)(=O)Nc1nc(NCCc2ccccc2)nc2c1CN(Cc1ccccc1)CC2 (2.5 µM),0,0,0,0,0,0,0,0,0,0
COc1cc2ncnc(Nc3cccc(I)c3)c2cc1OC (2.5 µM),0,0,0,0,0,0,0,0,0,0
O=C(O)c1cc(N(Cc2ccccc2O)Cc2cc(O)ccc2O)ccc1O [Lavendustin A] (10 µM),1,0,0,0,0,0,0,0,1,0
Cn1ncc(NC(=O)c2nc(-c3c(F)cccc3F)sc2N)c1N1CC[C@@H](N)[C@H](F)CC1 (10 µM),0,0,0,0,2,0,0,0,0,0
COc1ccc2c3n(c(=NC(=O)c4cccnc4)nc2c1OC)CCN3 (2 µM),0,0,0,0,0,0,0,0,0,0
CC(O)(C#Cc1ccc2c(c1)N(c1nc(N)ncc1Cl)CC2)c1nccs1 (stereo not given) (2.5 µM),0,0,0,0,0,0,0,0,0,0
Cc1ccc(C(=O)NC2CC2)cc1-n1ncc(C(=O)c2cccc(C#N)c2)c1N [Acumapimod] (10 µM),0,0,0,0,3,0,0,0,0,0
COC(=O)Nc1ccc(-c2nc(N3CCOCC3)c3cnn(C4CCN(C(=O)OC)CC4)c3n2)cc1 (10 µM),0,0,0,0,0,0,0,0,0,0
CC(C)(C)Cc1[nH]nc2c1[C@@](C)(c1ccccc1)C1=C(CC(C)(C)CC1=O)N2 (10 µM),0,0,0,0,0,0,0,0,0,0
CO[C@H]1C[C@@H]2CC[C@@H](C)[C@@](O)(O2)C(=O)C(=O)N2CCCC[C@H]2C(=O)O[C@H]([C@H](C)C[C@@H]2CC[C@@H](OCCO)[C@H](OC)C2)CC(=O)[C@H](C)/C=C(\C)[C@@H](O)[C@@H](OC)C(=O)[C@H](C)C[C@H](C)/C=C/C=C/C=C/1C [Everolimus] (10 µM),0,1,0,0,0,0,0,0,0,0
C=CC(=O)N1CCN(C(=O)CNc2cc(I)c(Cl)cc2O)CC1 [K-Ras(G12C) inhibitor 12] (10 µM),0,0,0,0,2,0,0,0,0,0
NC1(C(=O)NCCCn2cc(-c3ccc(OC(F)(F)F)cc3)c3cc(CN4CCN(Cc5c(Cl)cccc5Cl)CC4)ccc32)CCNCC1 (2.5 µM),0,0,0,0,0,0,0,0,0,0
C[C@H]1O[C@@H](O[C@H]2CC[C@@]3(C)[C@@H](CC[C@]4(C)[C@@H]3C=C[C@]35OC[C@@]6(CCC(C)(C)C[C@H]63)[C@H](O)C[C@]54C)[C@]2(C)CO)[C@H](O)[C@@H](O[C@@H]2O[C@H](CO)[C@@H](O)[C@H](O)[C@H]2O)[C@H]1O [Saikosaponin D] (2.5 µM),0,0,0,0,1,0,0,0,0,0
CC(C)n1c(=O)n(C)c2cnc3cc(F)c(-c4ccc(OCCCN5CCCCC5)nc4)cc3c21 (10 µM),0,0,0,0,0,0,0,0,0,0
CCN(CC)CCOc1ccc(Nc2nc(-c3ccccc3NC(=O)CCN3CCN(C)CC3)nc3ccccc23)cc1 (2.5 µM),0,0,0,0,0,0,0,0,0,0
COc1cc2c(cc1Nc1ncc(C(N)=O)c(Nc3c(F)cccc3C(F)(F)F)n1)CN(C)CC2 (2.5 µM),0,0,0,0,0,0,0,0,0,0

# Given tab-delimited: part of the list above.
SMILES	number of time points (PRKCA)	number of time points (PTK2)	number of time points (PTK2B)	number of time points (RAF1)	number of time points [1]	number of time points (RET)	number of time points [2]	number of time points (RIOK1)	number of time points (RIPK1)	number of time points (RIPK2)
COc1ccc2c3n(c(=NC(=O)c4cccnc4)nc2c1OC)CCN3 (2 µM)	0	0	0	0	0	0	0	0	0	0
CC(O)(C#Cc1ccc2c(c1)N(c1nc(N)ncc1Cl)CC2)c1nccs1 (stereo not given) (2.5 µM)	0	0	0	0	0	0	0	0	0	0

# Later entries

SMILES,number of time points (PRKCA),number of time points (PTK2),number of time points (PTK2B),number of time points (RAF1),number of time points [1],number of time points (RET),number of time points [2],number of time points (RIOK1),number of time points (RIPK1),number of time points (RIPK2)
C=CC(=O)N1CCC[C@@H](n2nc(-c3ccc(Oc4ccccc4)cc3)c3c(N)n[nH]c(=O)c32)C1 [BTK inhibitor 17] (10 µM),0,0,0,0,0,0,0,0,0,0
NCCOc1ccc(Cl)cc1C(=O)Nc1ccc([N+](=O)[O-])cc1Cl [HJC0152 hydrochloride] (2 µM),0,0,0,0,0,0,0,0,0,0
C=CC(=O)Nc1cc(Nc2nccc(-c3cn(C)c4ccccc34)n2)c(OC)cc1N(C)CCNC [AZ7550 Mesylate] (2.5 µM),0,0,0,0,1,0,0,0,0,0
CNC(=O)c1ccc2c(c1)ncn2-c1ccc(CC(=O)OC(C)(C)C)cc1 (10 µM),0,0,0,0,0,0,0,0,0,0
O=C(NCCN1CCOCC1)Nc1nc2ccc(Sc3nnc4ccc(-c5ccc(F)cc5)nn34)cc2s1 (10 µM),0,2,0,0,0,0,0,0,0,0
Clc1ccc(C(c2ccc(Cl)cc2)[n+]2ccn(CC(OCc3ccc(Cl)cc3Cl)c3ccc(Cl)cc3Cl)c2)cc1 (stereo not given) [Calmidazolium chloride] (2.5 µM),0,1,0,0,3,0,0,0,3,0
Nc1nc2c(nc(Br)n2[C@@H]2O[C@@H]3COP(=O)(O)O[C@H]3[C@H]2O)c(=O)[nH]1 [8-Bromo-cGMP (sodium)] (10 µM),0,0,0,0,0,0,0,0,0,0
COc1ccc(Br)cc1NC(=O)Nc1cccc2c1ccn2Cc1ccnc(N)c1 (2.5 µM),0,0,0,0,0,0,0,0,0,0
CC(C)Oc1ccc(F)c(-c2cnc(N)c(C(=O)Nc3cnccc3N3CCC[C@@H](C(=O)O)C3)n2)c1 (2 µM),0,0,0,0,0,0,0,0,2,3
Cn1c(CNc2cccc(C(=O)NCc3ccccc3C(F)(F)F)c2)nnc1-c1ccncc1 (10 µM),0,0,0,0,0,0,0,0,0,0
Cc1c(C(=O)Nc2ccc(Oc3ccnc4[nH]cc(-c5ccccc5)c34)c(F)c2)c(=O)n(-c2ccc(F)cc2)n1C (10 µM),0,0,0,0,0,0,0,0,0,1
CN(C)c1ccc(-c2nc3ncc(Cl)c(N4CCN(CC(=O)Nc5nccs5)CC4)c3[nH]2)cc1 (2 µM),0,0,0,0,0,0,0,0,0,0
CCc1c[nH]c2ncnc(N3CC[C@](N)(CNC(=O)c4ccc(F)cc4F)C3)c12 (10 µM),0,0,0,0,0,0,0,0,0,0
C=C1CCC[C@]2(C)C=C3OC(=O)C(C)=C3C[C@@H]12 [Atractylenolide I] (10 µM),0,0,0,0,0,0,0,0,0,0
O=C1Nc2ccc(I)cc2/C1=C/c1cc(Br)c(O)c(Br)c1 (10 µM),4,5,0,3,0,0,0,0,0,0
CCC(=O)Nc1cccc(Oc2nc(Nc3ccc(N4CCN(C)CC4)cc3OC)ncc2Cl)c1 (10 µM),0,0,0,0,0,0,0,0,0,0
c1nc2c(NC3CCCCC3)nc(Nc3ccc(N4CCOCC4)cc3)nc2[nH]1 [Reversine] (10 µM),0,1,0,2,4,0,0,0,0,0
CC1CN(CC2CCN(Cc3ccccc3)CC2)C(=O)N(c2cccc(C(=N)N)c2)C1 (stereo not given) (10 µM),0,0,0,0,0,0,0,0,0,0
